Measured values as given in PubChem BioAssay AID588590 (National Center for Advancing Translational Sciences (NCATS), 2011).
Values joined by “and” are separate entries in the source; they are usually repeats but may differ in a detail not shown here. Identical values can stand only once. Among all 390,000 compounds or so, about 4,000 (1%) were called active. The shares of active, inactive and inconclusive entries below differ from those in the screen. Calls come from the whole dose curve; as a rule, active = well fitted inhibition curve with a large enough effect; inconclusive = small, poorly fitted or top-dose-only effect, or another doubt; inactive = no such curve, though single readings can be large or run the other way. Potencies beside an inconclusive call are fits to weak or partial responses and may not hold up.

Amino acid sequences for entries named in this document (tags omitted). A change or cut given only in a name is not applied to a line headed by its entry.
UniProt Q9UNA4: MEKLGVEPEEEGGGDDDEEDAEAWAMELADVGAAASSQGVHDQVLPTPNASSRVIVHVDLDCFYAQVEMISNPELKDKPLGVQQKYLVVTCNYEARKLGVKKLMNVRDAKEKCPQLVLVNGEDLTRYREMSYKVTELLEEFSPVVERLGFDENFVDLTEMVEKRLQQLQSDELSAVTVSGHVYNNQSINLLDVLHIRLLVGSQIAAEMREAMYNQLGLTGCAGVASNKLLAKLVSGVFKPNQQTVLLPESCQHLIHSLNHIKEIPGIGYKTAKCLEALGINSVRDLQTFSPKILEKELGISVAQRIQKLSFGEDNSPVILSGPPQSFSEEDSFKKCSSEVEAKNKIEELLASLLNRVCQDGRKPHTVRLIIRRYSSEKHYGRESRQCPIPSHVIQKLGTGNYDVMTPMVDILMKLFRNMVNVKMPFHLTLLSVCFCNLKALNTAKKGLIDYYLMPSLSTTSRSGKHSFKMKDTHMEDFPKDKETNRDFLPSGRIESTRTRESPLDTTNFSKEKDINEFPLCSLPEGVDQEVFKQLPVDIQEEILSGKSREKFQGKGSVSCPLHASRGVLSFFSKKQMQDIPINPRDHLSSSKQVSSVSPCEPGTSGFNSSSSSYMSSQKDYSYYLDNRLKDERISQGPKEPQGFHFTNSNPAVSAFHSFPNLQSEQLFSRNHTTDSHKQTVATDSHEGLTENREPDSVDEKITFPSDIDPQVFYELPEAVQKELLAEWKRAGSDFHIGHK

Each compound was assayed against DNA polymerase iota (Homo sapiens) (UniProt Q9UNA4) (assay: qHTS for Inhibitors of Polymerase Iota). Settings: Pol iota fluorescent replication assay, 10 min; series mostly up to 115 µM.
Method in brief: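 Fluorescent replication assay read twice, at 0 min and 10 min after adding 50 nM (final) substrate. Enzyme (10 nM) and compounds were first incubated 15 min at room temperature; enzyme-free buffer wells were negative controls.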
Potency is the fitted concentration of half-maximal effect.

SMILES | Potency
Cc1cc(C)n2nc(SCn3nnc4ccccc4c3=O)nc2n1 | inconclusive: 56.2 µM [inhibitor, partial curve, poor fit]
Cc1ccc(NC(=O)c2cc(-c3cccs3)on2)cc1C | inconclusive: 4.47 µM [inhibitor, full curve, poor fit]
Cc1ccc(-n2ncc3c(NCCCn4ccnc4)ncnc32)cc1 | inactive
CCc1cc(=O)[nH]c(SCC(=O)Nc2cc(C)on2)n1 | inactive
CC(=O)C1=C(C)OC(N)=C(C#N)C1c1cc2cccc(C)c2nc1Cl (stereo not given) | inconclusive: 39.8 µM [inhibitor, single point]
Cc1cccc(-c2nc(N3CCN(c4ccc(F)cc4)CC3)c3ccccc3n2)c1 | inactive
Cc1cc(/C=C2\SC(=S)NC2=O)c(C)n1-c1ccccc1 | inconclusive: 22.4 µM [inhibitor, full curve]
N/C(Cc1cccs1)=N\OC(=O)COc1ccccc1Cl | inconclusive: 7.08 µM [inhibitor, partial curve, poor fit]
O=C1c2c(O)cccc2Cc2cccc(O)c21 | inactive
O=C(CCSCc1cnn(-c2ccccc2)c1-n1cccc1)NCc1ccc(Cl)cc1 | inactive
CCSc1nc2c(c(=O)n1-c1ccc(F)cc1)SCC2 | inconclusive: 89.1 µM [inhibitor, single point]
O=C(c1ccccc1Sc1ccc([N+](=O)[O-])cc1)N1CCCCC1 | inactive
NC(=O)CC[C@@H]1NC(=O)[C@H](CO)NC(=O)c2cc([N+](=O)[O-])cc(I)c2NCCCC[C@@H](C(N)=O)NC(=O)[C@H](Cc2ccc(O)cc2)NC1=O | inconclusive: 56.2 µM [inhibitor, partial curve, poor fit]
COc1ccc(CN2CCNC(=O)C2CC(=O)NC2CCCCCC2)c(C)c1C (stereo not given) | inactive
Cc1cccc(NS(=O)(=O)c2ccc(Cl)c(C(=O)Nc3ccccc3C)c2)c1 | inactive
CCCN1CCN(CCCNC(=O)CN2C(=O)c3cccnc3Oc3ccc(Cl)cc32)CC1 | inconclusive: 79.4 µM [inhibitor, single point]
CC(C)Cc1nc2sc3c(SCC(N)=O)ncnc3c2c2c1CCC2 | inconclusive: 15.8 µM [inhibitor, full curve, poor fit]
COc1ccc(CCNC(=O)CSc2nc3ccccc3nc2Cc2ccc(Cl)cc2)cc1OC | inconclusive: 79.4 µM [inhibitor, partial curve, poor fit]
Cc1ccc2nc(/C(C#N)=C\c3cc(O)ccc3[N+](=O)[O-])[nH]c2c1 | inactive
C=CCn1c(C(C)NC(=O)C(C)(C)C)nc2ccccc21 (stereo not given) | inconclusive: 70.8 µM [inhibitor, partial curve, poor fit]
O=C1C2=C(c3ccccc31)[N+](=O)[C@@H]1CCCC[C@@H]1N2[O-] | inconclusive: 8.91 µM [inhibitor, full curve, poor fit]
CN(C)c1cccc(C(=O)OCC(=O)Nc2nccs2)c1 | inconclusive: 100 µM [inhibitor, partial curve, poor fit]

SMILES | Potency
Cc1c(Nc2ncnc3c2cnn3-c2ccccc2)c(=O)n(-c2ccccc2)n1C | inconclusive: 89.1 µM [inhibitor, partial curve, poor fit]
O=C(c1cc(=O)[nH]c2ccccc12)N1CCN(S(=O)(=O)c2ccc3ccccc3c2)CC1 | inconclusive: 39.8 µM [inhibitor, single point]
Cc1cccc(S(=O)(=O)C(C#N)c2nc3ccccc3nc2N2CCOCC2)c1 (stereo not given) | inconclusive: 5.01 µM [inhibitor, full curve, poor fit]
Cc1ccc(-c2cc3ncc4c(n3n2)-c2ccccc2OC4)cc1 | inconclusive: 3.98 µM [inhibitor, partial curve, poor fit]
N#CC1=C(N)OC2=C(CC/C2=C\c2ccccc2Cl)C1c1ccccc1Cl (stereo not given) | inconclusive: 22.4 µM [inhibitor, partial curve]
Cc1ccc(OCCSc2nc3ccccc3n2CC(=O)NC(C)C)cc1 | inactive
CN(C)c1ccc(/C=c2\[nH]c(=O)/c(=C\c3ccc(N(C)C)cc3)[nH]c2=O)cc1 | inconclusive: 56.2 µM [inhibitor, partial curve, poor fit]
Cc1cc(C)cc(NC(=O)CCc2nc3sc4c(c3c(=O)[nH]2)CCCC4)c1 | active: 44.7 µM
O=C(Nc1ccc(OC(F)(F)F)cc1)C(NS(=O)(=O)c1cccc2nsnc12)c1ccccc1 (stereo not given) | inconclusive: 79.4 µM [inhibitor, single point]
O=C(N/N=C/c1ccc([N+](=O)[O-])o1)c1cn2ccc3ccccc3c2n1 | inconclusive: 56.2 µM [inhibitor, partial curve, poor fit]
Cc1cc(SCC(=O)Nc2ccc(C(F)(F)F)cc2)nc(=O)[nH]1 | inactive
Cc1cccc(CSc2ccc3nnc(CCNS(=O)(=O)c4ccccc4)n3n2)c1 | inactive
CC1CN(Cc2c(O)ccc3c2oc(=O)c2ccccc23)CC(C)O1 (stereo not given) | inconclusive: 2.82 µM [inhibitor, full curve, poor fit]
COc1ccc(C(=O)Nc2ccc3nc(N4CCCCC4)cc(C)c3c2)cc1OC | inconclusive: 79.4 µM [inhibitor, single point]
O=C(CSCc1ccccc1)Nc1ccc(S(=O)(=O)Nc2ncccn2)cc1 | inconclusive: 50.1 µM [inhibitor, partial curve]
CCOc1cc(/C=C/C(=O)OCC(=O)NCC2CCCO2)cc(Cl)c1OC (stereo not given) | inconclusive: 89.1 µM [inhibitor, partial curve, poor fit]
Cc1ccc(C(=O)Nc2nnc(S(=O)(=O)N3CCCc4ccccc43)s2)cc1 | inactive
O=[N+]([O-])c1ccc(COc2ccccc2CN2CCOCC2)cc1 | inactive
O=C(Cc1cccs1)Nc1ccc(N2CCOCC2)cc1 | inconclusive: 22.4 µM [inhibitor, full curve]
CC1=C/C(=N\OS(=O)(=O)c2ccccc2)C=CC1=O | inconclusive: 10 µM [inhibitor, full curve, poor fit]
CC(C)OP(C)(=O)CN1CCN(CP(C)(=O)OC(C)C)CC1 (stereo not given) | inconclusive: 35.5 µM [inhibitor, single point]
COc1cccc(C(=O)/C=C/c2ccc(OCC#N)c(OC)c2)c1 | inconclusive: 14.1 µM [inhibitor, partial curve, poor fit]

SMILES | Potency
Cc1cc(Br)ccc1-n1[nH]c(C)c(C=Nc2cccc3nsnc23)c1=O | inconclusive: 1 µM [inhibitor, full curve, poor fit]
COc1cc(SC)ccc1C(=O)NCCCn1ccnc1 | inactive
C#CCOCCOCCOCCNc1nc(N2CCOCC2)nc(N2CCN(C(=O)CCCCCCCCCCNC(=O)[C@H]([C@@H](C)CC)n3cc(CCCCN=C(N)N)nn3)CC2)n1 | inactive
Cc1ccc(Cn2cccc2/C=C2/C(=N)N3C=CSC3=NC2=O)cc1 | inconclusive: 89.1 µM [inhibitor, single point]
COc1ccc(Sc2ccccc2CN(C)C)cc1OC | inactive
Cc1ccc(NC(=O)CSc2nc3nccnc3c(=O)n2CCc2c[nH]c3ccccc23)c(C)c1 | inactive
C#CC(N)CCC(=O)O (stereo not given) | inactive
CCN1C(=O)N/C(=C/c2ccc(Sc3ccc(C)cc3)o2)C1=O | inconclusive: 35.5 µM [inhibitor, single point]
Cc1cc(C)c(NC(=O)CN2C(=O)CCn3nc(-c4cccn4C)cc32)c(C)c1 | inactive
CCCCN(CC)S(=O)(=O)c1ccc(C(=O)Nc2nnc(-c3cccs3)o2)cc1 | inconclusive: 6.31 µM [inhibitor, single point]
Cc1ccccc1CN1c2ccccc2-c2nc(SCC(=O)Nc3cc(F)ccc3F)ncc2S1(=O)=O | inconclusive: 89.1 µM [inhibitor, single point]
Cc1ccc2ncnc(NCc3ccco3)c2c1 | inconclusive: 56.2 µM [inhibitor, partial curve, poor fit]
CC(C)C(=O)N(Cc1ccc2c(c1)OCO2)Cc1ccccn1 | inconclusive: 22.4 µM [inhibitor, full curve, poor fit]
CO/N=C\CC(=O)Nc1ccc(Oc2ccccc2)cc1 | inconclusive: 100 µM [inhibitor, single point]
COc1ccc(CN2[C@@H](CC(C)=O)c3ccc(/C=C/C(C)=O)cc3S2(=O)=O)cc1 | inconclusive: 44.7 µM [inhibitor, partial curve] and inconclusive: 20 µM [inhibitor, full curve, poor fit]
C=CCn1c(N)c(C(=O)Nc2ccccc2)c2nc3ccccc3nc21 | inconclusive: 35.5 µM [inhibitor, single point]
Cc1ccc2nc(-c3ccc(-c4cccc(Cl)c4)cc3)c(NCc3ccccc3)n2c1 | inconclusive: 7.94 µM [inhibitor, partial curve, poor fit]
O=C(CN1C(=O)CSc2cc(S(=O)(=O)N3CCCCCC3)ccc21)NCCc1ccccc1 | inactive
O=C(CN1C(=O)C(=O)N(Cc2ccco2)C1=O)NC1CCCCC1 | inconclusive: 56.2 µM [inhibitor, partial curve, poor fit]
COc1c(O)ccc2c1CN1CCc3cc4c(cc3C1C2)OCO4 (stereo not given) | inconclusive: 22.4 µM [inhibitor, full curve, poor fit]
Cc1cc(C(=O)COC(=O)CC2Sc3ccccc3NC2=O)c(C)n1-c1cccc(C(F)(F)F)c1 (stereo not given) | inconclusive: 39.8 µM [inhibitor, partial curve]
